Construct, isoform or probe ends are uncertain for at least one entry. The direction of at least one scale is not stated here.
Biological target: chLGP2 (chicken) (UniProt G0YYQ5)
Experiment: fluorescence anisotropy
Details: Fluorescence anisotropy: 5'-FAM 12-mer annealed to unlabeled complement, protein titrated, ex 495 / em 515 nm, fit with Hill coefficient (n=1 for RIG-I); recombinant protein; residues 1-674; protein details: SUMO fusion; label: 5'-FAM on one strand

Chains of the proteins cited; added tags and fusions are not shown.
UniProt G0YYQ5, entry or part of it: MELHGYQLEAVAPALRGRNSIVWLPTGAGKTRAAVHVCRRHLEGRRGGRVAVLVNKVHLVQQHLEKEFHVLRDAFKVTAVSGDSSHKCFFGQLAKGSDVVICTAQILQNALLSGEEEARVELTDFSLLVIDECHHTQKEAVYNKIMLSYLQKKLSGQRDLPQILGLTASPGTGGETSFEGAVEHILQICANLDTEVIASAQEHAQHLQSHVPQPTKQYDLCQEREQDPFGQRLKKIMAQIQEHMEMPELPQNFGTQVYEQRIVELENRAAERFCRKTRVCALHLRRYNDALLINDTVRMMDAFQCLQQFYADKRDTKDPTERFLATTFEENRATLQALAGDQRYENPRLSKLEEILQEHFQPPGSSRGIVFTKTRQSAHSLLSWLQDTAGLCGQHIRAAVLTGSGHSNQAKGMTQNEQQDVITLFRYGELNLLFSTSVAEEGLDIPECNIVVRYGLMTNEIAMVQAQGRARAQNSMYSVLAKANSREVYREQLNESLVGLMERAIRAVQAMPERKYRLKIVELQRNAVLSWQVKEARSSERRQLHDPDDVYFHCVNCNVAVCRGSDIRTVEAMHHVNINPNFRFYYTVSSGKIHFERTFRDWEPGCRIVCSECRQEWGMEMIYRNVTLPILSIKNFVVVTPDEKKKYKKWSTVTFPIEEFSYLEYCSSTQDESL

Work on “GGCCAGUGCGAA / CGCACUGGCCAA [3' overhang dsRNA (anisotropy)]” yielded a binding signal (fold lower affinity than blunt end) of 2.
